The structures appear in SMILES notation.

Our source for the IC50 values is patent publication US11932642B1, “Substituted pyrido[3′,4′:4,5]pyrrolo[3,2-b][1,6]naphthyridines as CK2 inhibitors” (KING FAISAL UNIVERSITY, priority 2023, dated 2024).

Assay type in all cases: cell-based
For one test, the system named is MIAPaCa-2 (pancreas). The test can be described thus: In vitro cytotoxic activity (MTT) assay, MIAPaCa-2. The conditions noted are these: Homo sapiens, MIA PaCa-2; MIAPaCa-2 (pancreas) cells, exposed for 96 hours; read-out: IC50, concentration of compound eliciting a 50% inhibition of cell proliferation. On the procedure: (§1) Compounds 1-12 were screened for their in vitro cytotoxic activity utilizing a 3-(4,5-dimethyl-thiazol-2-yl)-2,5-diphenyltetrazolium bromide (MTT) assay against selected cancer human cell lines consisting of PC3 (prostate), HCT116 (colon), A375 (melanoma), H1299 (lung), MIAPaCa-2 (pancreas), HL60 (leukemia), MCF7 (breast), MDA-MB-231 (breast) (T. Mosmann, J. Immunol. Meth., 1983, 65, 55-63). The cells were cultured at 37° C. in RMPI1640 medium supplemented with 10% fetal bovine serum, 50 IU/mL penicillin, and 50 μg/mL streptomycin in a 5% CO2 incubator. All cells were sub-cultured 3 times/week by trypsinisation. Viable cells were seeded and allowed to adhere for 12 h before a test drug was added in 96-well plates at an initial density of 1.0×10^5 cells/mL. Tumour cell lines were separately exposed to various concentrations of the tested compounds followed by incubation at a temperature of 37° C. during 96 h inside a medium of fresh RMPI 1640. Cells were subsequently incubated at 37° C. using MTT at 0.5 mg/mL during 4 h. After removal of supernatant, formazan crystals were dissolved in isopropanol and the optical density was measured at 570 nm. CX-4945 was used as a positive control.

Another test deals with HL60 (leukemia). The test can be described thus: In vitro cytotoxic activity (MTT) assay, HL60. The conditions noted are these: Homo sapiens, HL-60; HL60 (leukemia) cells, exposed for 96 hours; read-out: IC50, concentration of compound eliciting a 50% inhibition of cell proliferation. On the procedure:
as §1

For the next test, the system named is MCF7 (breast). The test can be described thus: In vitro cytotoxic activity (MTT) assay, MCF7. The conditions noted are these: Homo sapiens; MCF7 (breast) cells, exposed for 96 hours; read-out: IC50, concentration of compound eliciting a 50% inhibition of cell proliferation. On the procedure: as §1
A further test concerns PC3 (prostate). The test can be described thus: In vitro cytotoxic activity (MTT) assay, PC3. The following applies: Homo sapiens, Prostate cell; PC3 (prostate) cells, exposed for 96 hours; read-out: IC50, concentration of compound eliciting a 50% inhibition of cell proliferation. On the procedure: as §1
The next test deals with A375 (melanoma). As to the kind of experiment: In vitro cytotoxic activity (MTT) assay, A375. The conditions noted are these: Homo sapiens, A-375; A375 (melanoma) cells, exposed for 96 hours; read-out: IC50, concentration of compound eliciting a 50% inhibition of cell proliferation. On the procedure: as §1
For the next test, the system named is HCT116 (colon). As to the kind of experiment: In vitro cytotoxic activity (MTT) assay, HCT116. The conditions noted are these: Homo sapiens, HCT-116; HCT116 (colon) cells, exposed for 96 hours; read-out: IC50, concentration of compound eliciting a 50% inhibition of cell proliferation. On the procedure: as §1
A further test relates to H1299 (lung). As to the kind of experiment: In vitro cytotoxic activity (MTT) assay, H1299. The following applies: Homo sapiens, NCI-H1299; H1299 (lung) cells, exposed for 96 hours; read-out: IC50, concentration of compound eliciting a 50% inhibition of cell proliferation. On the procedure:
as §1

Another test relates to MDA-MB-231 (breast). The test can be described thus: In vitro cytotoxic activity (MTT) assay, MDA-MB-231. The conditions noted are these: Homo sapiens; MDA-MB-231 (breast) cells, exposed for 96 hours; read-out: IC50, concentration of compound eliciting a 50% inhibition of cell proliferation. On the procedure: as §1

With `O=C(O)c1ccc2c(c1)nc(Nc1cccc(Cl)c1)c1ccncc12` [CX-4945, reference compound], the IC50 with MIAPaCa-2 (pancreas) amounted to 1 µM; with HL60 (leukemia) it was 3.7 µM; with MCF7 (breast), 9.1 µM; in the test with PC3 (prostate) it was 2 µM; with A375 (melanoma) it was 4.1 µM; in the test on HCT116 (colon), 2.3 µM. Further, the IC50 was found to be 2.3 µM in the test on H1299 (lung) and 6.2 µM with MDA-MB-231 (breast).
